Here are results for 38 compounds from PubChem BioAssay AID2685 (National Center for Advancing Translational Sciences (NCATS), 2010).

The test in a line: qHTS Assay for Lipid Storage Modulators in Drosophila S3 Cells.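 As to cell number change: cells counted by Cell Tracker Red CMTPX staining in the red channel.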 The settings on record: BODIPY lipid droplet fluorescence, 18-24 h; for cell number change: measured here: cell count max response, cells fed with added oleic acid. The procedure, abridged:
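Laser-scanning cytometry quantifies lipid droplet accumulation (500–530 nm total intensity; droplet/cell object ratio) in oleic acid-fed (400 uM added) Drosophila S3 cells treated with a concentration series. 20 uM Triacsin C defined 100% inhibition.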
On the technique in general: In qHTS, concentration-response curves come from the screen itself.

[1] abbreviates: measured here: cell number channel AC50, cells fed with added oleic acid.
The mark [2] stands for this setting: measured here: lipid fluorescence (Fed channel) AC50, cells fed with added oleic acid.

Some of the results follow. The main result of the screen is listed elsewhere. These columns were measured beside it and carry no call. Compounds called inactive in the main read-out are mostly missing here. The note in brackets gives the kind of curve behind each potency; many fits are weak.

Broadly, the AC50 is the midpoint of the concentration-response curve, whichever way the signal moves. Turning to `Oc1ccc(C2N=C(c3ccccc3)NC(c3ccccc3)=N2)cc1`, the cell number change was 35.5%. The AC50 under setting [1] is 0.103 µM [rising, full curve]. On to `COc1cc(SC)ccc1C(=O)Nc1ccccc1C#N`, for which the cell number change was -26.1%. Further, under setting [2], the AC50 was 6.51 µM [rising, single point]. In the case of `COc1cc(CCC(=O)Nc2ccc(Br)c(C(F)(F)F)c2)cc(OC)c1OC`, the cell number change turned out to be 31.2%. Further, the AC50 under setting [1] was 5.8 µM [rising, partial curve]. Regarding `Cc1ccc(/C=C2/SC(=Nc3ccc(F)cc3)NC2=O)s1`, the cell number change is 6.14%. Besides, under setting [2], the AC50 is 0.517 µM [rising, single point]. For `CC(C)(C)c1cc(=O)n(-c2ccccc2)[nH]1`, the cell number change was -74.6%. Also, the AC50 under setting [1] was 20.6 µM [falling, partial curve]. Further, the AC50 under setting [2] is 25.9 µM [falling, partial curve]. As for `COCCOC(=O)C1=C(C)NC2=C(C(=O)CC(C)(C)C2)C1c1cccnc1` (stereo not given), the AC50 by setting is: under setting [1], 1.84 µM [rising, partial curve]; under setting [2], 0.13 µM [rising, full curve, poor fit].

With `O=C(Nc1ccc2c(c1)OCO2)c1noc2c1CCCC2`, the cell number change is -11.7%. For the compound `O=C(O)c1cccc(NC(=O)c2ccc3c(c2)C(=O)N(c2ccccc2)C3=O)c1`, the cell number change worked out at 31.3%. Regarding `Cc1ccccc1CCN(C(=O)Cn1nnc2ccccc21)C(C(=O)NCC1CCCO1)c1nc2ccccc2n1C` (stereo not given), the cell number change is 9.85%. In addition, the AC50 under setting [2] is 0.731 µM [rising, partial curve, poor fit]. `CCn1cc(C(=O)NCCCN2CCCC(C)C2)c(=O)c2cc(S(=O)(=O)N(C)C3CCCCC3)ccc21` (stereo not given): the cell number change was -1.21%.

For `Cc1cccc(N2CCN(C(=O)CCNS(=O)(=O)c3ccc4c(c3)CCC(=O)N4)CC2)c1C`, the AC50 reads like this: under setting [1], 6.51 µM [rising, single point]; under setting [2], 6.51 µM [rising, single point]. On to `Fc1ccc(N2CCN(C3=Nc4cccc5cccc3c45)CC2)cc1`, for which the cell number change was -19.5%. Further, under setting [1], the AC50 is 0.00461 µM [falling, full curve, poor fit]. For the same compound, under setting [2], the AC50 is 0.13 µM [falling, full curve, poor fit]. Regarding `Cc1cccc(NC(=O)c2ccc(CN3CCc4ccccc4C3)cc2)c1C`, the cell number change is -30.2%. For `Cc1cccc(CS(=O)(=O)Cc2ccc(C(=O)NCCc3ccccc3)o2)c1`, the cell number change is -13.5%. In addition, the AC50 under setting [2] is 29.1 µM [falling, single point]. For `CCSc1nnc(NC(=O)c2nn(C(C)C)c(=O)c3ccccc23)s1`, the cell number change amounted to 79.1%. Besides, the AC50 under setting [1] was 16.4 µM [rising, single point]. The AC50 under setting [2] was 20.6 µM [rising, single point]. For `Cc1ccc(NC(=O)Nc2cc(C(F)(F)F)c[nH]c2=O)cc1`, the cell number change turned out to be 12.6%. For the same compound, under setting [2], the AC50 is 3.66 µM [rising, single point].

As for `CC(OC(=O)c1ccc2ncsc2c1)C(=O)Nc1ncc(Cl)cc1Cl` (stereo not given), the cell number change is 22.4%. In addition, the AC50 under setting [2] is 20.6 µM [rising, single point]. As for `OC(CNCC1COc2ccccc2O1)COc1ccccc1F` (stereo not given), the cell number change is -13.3%. Also, the AC50 under setting [1] was 0.13 µM [falling, full curve, poor fit]. The AC50 under setting [2] was 0.103 µM [falling, full curve, poor fit]. Take `CCOC(=O)N1CCN(C(=O)CSc2ccc3nnc(CCNC(=O)c4ccccc4)n3n2)CC1`: the cell number change is -20.4%. The AC50 under setting [2] is 0.103 µM [falling, full curve]. Regarding `COc1cc(/C=N\NC(=O)c2ccc(-c3ccccc3)cc2)ccc1OCC(N)=O`, the cell number change was -3.47%. The AC50 under setting [1] was 0.651 µM [rising, full curve]. For the same compound, the concentration at half-maximal activity (AC50) under setting [2] is 29.1 µM [rising, single point].

`CCCc1cc(=O)[nH]c(SCC(=O)c2cc(C)n(-c3c(C)n(C)n(-c4ccccc4)c3=O)c2C)n1`: the cell number change is 11.9%. With `CSc1nc(-c2ccccc2)nc(N2CCOCC2)c1C(C)=O`, the cell number change is -17.8%. The AC50 under setting [2] was 11.6 µM [rising, single point].

Turning to `Cc1cc(Br)c(NC(=O)CCl)c(Br)c1`, the cell number change was -35.4%. Besides, the AC50 under setting [1] is 4.11 µM [falling, full curve]. Besides, the AC50 under setting [2] is 29.1 µM [falling, single point].

Consider `CCOC(=O)c1csc(NC(=O)CSc2nnnn2-c2ccc(OCC)cc2)n1`, for which the cell number change turned out to be 11.1%. For the same compound, the AC50 under setting [2] is 5.8 µM [rising, single point]. With `CCN(CC)S(=O)(=O)c1ccc(/C(O)=C2/C(=O)C(=O)N(CCOC)C2c2ccccc2)cc1` (stereo not given), the cell number change is -21.8%. Further, under setting [2], the AC50 was 0.651 µM [falling, full curve, poor fit]. In the case of `CC(C)NC(=O)NC(=O)CN1c2cccc3cccc(c23)S1(=O)=O`, the cell number change was -0.704%. Turning to `CC1N(C)c2cccc3cccc(c23)N1C`, the cell number change was -7.01%. The AC50 under setting [2] is 1.64 µM [rising, partial curve]. `CCC(C)(C(=O)NC1CCCCC1)N(Cc1ccco1)C(=O)Cc1cccs1` (stereo not given): the cell number change was -24.1%.

Regarding `CN(C)CCCn1c(N)c(C#N)c2nc(C#N)c(C#N)nc21`, the AC50 under setting [1] was 0.92 µM [falling, full curve, poor fit] and the concentration at half-maximal activity (AC50) under setting [2] was 6.51 µM [falling, single point]. `COc1cc(-c2cc(C(=O)NN3CCN(C)CC3)c3ccccc3n2)cc(OC)c1OC`: the cell number change worked out at 8.44%. Moreover, the AC50 under setting [2] is 0.116 µM [rising, partial curve]. In the case of `Cc1ccc(/C=C/C(=O)NC(=S)Nc2ccc(S(=O)(=O)Nc3cc(C)on3)cc2)cc1`, the cell number change was 10%. Moreover, the half-maximal activity concentration (AC50) under setting [2] was 16.4 µM [rising, partial curve]. Turning to `CC(C)CCNC(=O)C1CCC(=O)N1C(C)C` (stereo not given), the cell number change was -8.77%. In the case of `Cc1ccccc1NC(=S)NNC(=O)c1ccncc1`, the cell number change was determined as 172%. In addition, the AC50 under setting [1] was 29.1 µM [rising, single point].

Regarding `CCOC(=O)c1nnc(-c2ccccc2)nc1Sc1ccccc1Cl`, the cell number change is -52.6%. Moreover, under setting [1], the AC50 was 25.9 µM [falling, partial curve]. The AC50 under setting [2] is 5.17 µM [falling, full curve, poor fit]. In the case of `Cc1ccc(NC(=O)CSc2nnc(NC(=O)C3CC3)s2)cc1`, the cell number change turned out to be 1.51%.

As to `Cc1ccc(/C=N/N=C2\SCC(=O)N2CC2CC2)cc1`, the cell number change came to 12.9%. The AC50 under setting [2] was 2.31 µM [rising, partial curve, poor fit]. For `Cn1nc(C(=O)NCc2cccc(F)c2)cc1C(=O)NCc1cccc(F)c1`, the cell number change was -54.4%. Also, the AC50 under setting [1] was 29.1 µM [falling, single point]. Under setting [2], the AC50 was 18.4 µM [falling, single point]. Consider `COc1ccc2occ(C(=O)c3ccc(N=C(C)N(C)C)cc3)c2c1`, for which the cell number change turned out to be 0.0638%. For the same compound, under setting [2], the AC50 was 6.51 µM [falling, single point].
